Here are results for three substances from article PMC6218445.

Protein sequences, listed by entry. Tags and fused reporters are not part of them. Lines headed by an entry give the natural chain unless they say otherwise; changes in a name come on top. Chains listed by the source or under a name are the forms on record and can include a tag or linker.
UniProt Q13315: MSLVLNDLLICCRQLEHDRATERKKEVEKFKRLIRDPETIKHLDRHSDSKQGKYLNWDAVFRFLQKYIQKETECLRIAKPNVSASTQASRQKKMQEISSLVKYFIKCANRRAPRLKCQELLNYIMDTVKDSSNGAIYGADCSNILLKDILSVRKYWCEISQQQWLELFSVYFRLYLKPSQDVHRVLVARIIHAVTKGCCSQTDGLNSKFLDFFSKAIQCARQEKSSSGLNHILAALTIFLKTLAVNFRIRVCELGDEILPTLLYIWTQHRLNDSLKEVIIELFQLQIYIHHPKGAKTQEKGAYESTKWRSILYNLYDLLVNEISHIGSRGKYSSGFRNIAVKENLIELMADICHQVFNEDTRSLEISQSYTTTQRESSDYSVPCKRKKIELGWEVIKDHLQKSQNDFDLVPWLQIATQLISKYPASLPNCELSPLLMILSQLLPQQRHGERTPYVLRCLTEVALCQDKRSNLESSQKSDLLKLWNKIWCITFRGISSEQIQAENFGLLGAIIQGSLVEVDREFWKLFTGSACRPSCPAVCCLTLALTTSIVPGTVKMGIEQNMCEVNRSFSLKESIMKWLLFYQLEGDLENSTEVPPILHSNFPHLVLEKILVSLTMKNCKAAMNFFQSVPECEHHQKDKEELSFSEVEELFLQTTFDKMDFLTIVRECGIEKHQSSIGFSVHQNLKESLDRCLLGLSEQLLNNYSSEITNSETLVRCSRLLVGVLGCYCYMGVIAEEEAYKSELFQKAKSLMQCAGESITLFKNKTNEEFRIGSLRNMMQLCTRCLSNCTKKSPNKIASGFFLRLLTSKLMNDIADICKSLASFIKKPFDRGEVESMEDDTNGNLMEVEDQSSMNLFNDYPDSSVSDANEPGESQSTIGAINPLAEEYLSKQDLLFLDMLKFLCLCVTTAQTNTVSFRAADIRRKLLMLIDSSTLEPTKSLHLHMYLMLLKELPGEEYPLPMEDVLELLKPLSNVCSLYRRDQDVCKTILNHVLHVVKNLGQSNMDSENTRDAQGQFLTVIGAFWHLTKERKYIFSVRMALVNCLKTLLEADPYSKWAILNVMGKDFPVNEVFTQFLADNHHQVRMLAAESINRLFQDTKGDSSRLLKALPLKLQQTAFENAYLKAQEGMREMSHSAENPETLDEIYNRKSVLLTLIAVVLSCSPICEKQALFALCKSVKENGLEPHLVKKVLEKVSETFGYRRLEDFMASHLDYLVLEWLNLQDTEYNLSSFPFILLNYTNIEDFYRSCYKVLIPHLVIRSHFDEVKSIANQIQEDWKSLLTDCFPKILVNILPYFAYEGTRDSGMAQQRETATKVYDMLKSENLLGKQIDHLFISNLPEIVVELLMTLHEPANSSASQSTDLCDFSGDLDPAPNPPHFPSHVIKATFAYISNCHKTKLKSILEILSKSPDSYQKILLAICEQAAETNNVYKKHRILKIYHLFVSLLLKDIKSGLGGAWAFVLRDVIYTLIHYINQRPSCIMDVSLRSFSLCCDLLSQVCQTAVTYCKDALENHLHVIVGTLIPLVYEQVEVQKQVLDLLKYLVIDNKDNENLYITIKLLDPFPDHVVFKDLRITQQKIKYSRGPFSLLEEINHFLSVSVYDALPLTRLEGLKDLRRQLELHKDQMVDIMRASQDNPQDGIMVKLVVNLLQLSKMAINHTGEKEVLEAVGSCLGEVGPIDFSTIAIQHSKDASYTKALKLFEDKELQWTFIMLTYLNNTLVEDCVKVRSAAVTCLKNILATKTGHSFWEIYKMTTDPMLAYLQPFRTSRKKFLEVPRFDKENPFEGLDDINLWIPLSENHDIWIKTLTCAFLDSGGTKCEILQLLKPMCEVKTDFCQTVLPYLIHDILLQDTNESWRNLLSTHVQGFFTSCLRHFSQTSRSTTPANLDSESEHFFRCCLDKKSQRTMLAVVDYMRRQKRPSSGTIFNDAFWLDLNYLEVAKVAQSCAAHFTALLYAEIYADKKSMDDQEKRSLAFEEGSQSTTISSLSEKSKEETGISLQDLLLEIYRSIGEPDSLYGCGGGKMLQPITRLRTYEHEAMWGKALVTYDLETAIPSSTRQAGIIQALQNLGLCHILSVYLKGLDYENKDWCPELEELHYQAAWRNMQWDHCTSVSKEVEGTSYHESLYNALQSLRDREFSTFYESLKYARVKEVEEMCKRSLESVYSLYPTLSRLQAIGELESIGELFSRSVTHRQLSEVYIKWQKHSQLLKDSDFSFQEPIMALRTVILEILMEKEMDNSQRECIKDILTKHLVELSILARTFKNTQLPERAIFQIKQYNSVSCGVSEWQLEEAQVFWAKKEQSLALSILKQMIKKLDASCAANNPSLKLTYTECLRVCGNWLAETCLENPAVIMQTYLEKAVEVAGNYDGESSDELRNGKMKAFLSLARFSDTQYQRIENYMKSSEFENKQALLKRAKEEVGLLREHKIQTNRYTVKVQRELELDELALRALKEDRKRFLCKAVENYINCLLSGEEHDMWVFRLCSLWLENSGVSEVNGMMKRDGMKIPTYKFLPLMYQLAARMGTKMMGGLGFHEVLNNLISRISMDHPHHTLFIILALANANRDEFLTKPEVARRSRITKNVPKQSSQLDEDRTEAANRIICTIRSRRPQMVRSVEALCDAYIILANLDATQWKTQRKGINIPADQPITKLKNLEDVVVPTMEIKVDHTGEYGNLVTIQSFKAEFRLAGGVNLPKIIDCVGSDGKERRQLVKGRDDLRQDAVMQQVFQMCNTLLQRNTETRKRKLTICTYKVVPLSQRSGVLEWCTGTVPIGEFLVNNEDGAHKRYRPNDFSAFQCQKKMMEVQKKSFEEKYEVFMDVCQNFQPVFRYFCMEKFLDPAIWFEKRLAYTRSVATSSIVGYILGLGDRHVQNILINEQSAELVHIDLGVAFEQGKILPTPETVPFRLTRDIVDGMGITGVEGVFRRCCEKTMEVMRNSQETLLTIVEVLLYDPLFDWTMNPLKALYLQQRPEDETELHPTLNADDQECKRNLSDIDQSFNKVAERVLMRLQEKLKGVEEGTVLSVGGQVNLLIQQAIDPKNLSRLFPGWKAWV
UniProt P14618: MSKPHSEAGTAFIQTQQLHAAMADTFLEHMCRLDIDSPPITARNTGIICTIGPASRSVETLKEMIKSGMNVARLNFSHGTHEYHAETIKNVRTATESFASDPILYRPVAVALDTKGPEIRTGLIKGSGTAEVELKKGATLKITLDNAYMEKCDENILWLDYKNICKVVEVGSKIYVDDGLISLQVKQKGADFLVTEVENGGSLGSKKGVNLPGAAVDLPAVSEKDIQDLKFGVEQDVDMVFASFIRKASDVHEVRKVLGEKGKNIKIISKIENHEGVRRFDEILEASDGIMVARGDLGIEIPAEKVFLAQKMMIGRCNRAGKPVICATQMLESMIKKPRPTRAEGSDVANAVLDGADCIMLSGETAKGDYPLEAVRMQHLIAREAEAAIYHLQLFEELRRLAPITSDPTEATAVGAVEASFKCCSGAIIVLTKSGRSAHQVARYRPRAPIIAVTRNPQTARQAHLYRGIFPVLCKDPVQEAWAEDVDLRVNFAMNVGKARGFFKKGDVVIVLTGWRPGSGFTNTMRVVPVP
PKM1 (P14618-2, form named): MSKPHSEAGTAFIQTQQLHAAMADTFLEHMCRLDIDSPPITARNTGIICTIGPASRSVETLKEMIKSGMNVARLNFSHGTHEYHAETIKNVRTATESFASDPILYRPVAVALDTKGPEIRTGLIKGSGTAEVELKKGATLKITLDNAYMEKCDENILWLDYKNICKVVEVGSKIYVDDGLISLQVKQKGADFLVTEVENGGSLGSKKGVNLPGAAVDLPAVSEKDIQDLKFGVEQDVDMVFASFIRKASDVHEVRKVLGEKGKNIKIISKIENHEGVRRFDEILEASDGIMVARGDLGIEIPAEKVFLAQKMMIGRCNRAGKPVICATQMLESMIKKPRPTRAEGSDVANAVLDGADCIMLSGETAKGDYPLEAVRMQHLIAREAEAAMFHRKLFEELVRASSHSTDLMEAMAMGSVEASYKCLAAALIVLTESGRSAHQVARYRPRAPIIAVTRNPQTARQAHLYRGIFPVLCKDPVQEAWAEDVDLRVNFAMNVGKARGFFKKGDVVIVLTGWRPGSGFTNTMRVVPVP
UniProt Q06609: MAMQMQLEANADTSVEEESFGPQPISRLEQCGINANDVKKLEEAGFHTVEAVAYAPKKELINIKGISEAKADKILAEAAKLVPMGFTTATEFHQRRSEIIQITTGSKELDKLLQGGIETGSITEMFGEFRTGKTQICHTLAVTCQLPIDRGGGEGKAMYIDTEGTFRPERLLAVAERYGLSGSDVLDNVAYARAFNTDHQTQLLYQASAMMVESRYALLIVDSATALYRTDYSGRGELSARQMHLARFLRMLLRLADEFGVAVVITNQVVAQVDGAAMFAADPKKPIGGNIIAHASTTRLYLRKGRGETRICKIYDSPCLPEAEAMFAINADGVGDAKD

The target of experiment [1] is ataxia telangiectasia mutated (human (endogenous in U87)) (UniProt Q13315). Put plainly: co-IP; lysates of U87 cells treated with 0 or 6 Gy, immunoprecipitated with antibodies against ATM, PKM2 or anti-rabbit IgG (reciprocal), immunoblot; endogenous proteins. On the technique in general: Immunoblotting shows a protein as a band on a membrane.
The target of experiment [2] is pyruvate kinase M2 (human (endogenous in U87)) (UniProt P14618). Kind of experiment: co-IP; lysates of unirradiated or irradiated U87 cells, immunoprecipitated with PKM2 and CtIP antibodies or anti-rabbit IgG, western blot; endogenous proteins.

No constants are given. Whether binding was seen depends on the method and setting. In cells and extracts the contact can be indirect. Some binding calls cover weakened binding; strength is not graded here.

Take “pyruvate kinase M2 (from UniProt P14618 1-531) (enzyme)”: the binding result in experiment [1] is on record as “binds”.

Rad51 (from UniProt Q06609 1-339): the binding entry in experiment [2] was “binds”. For “PKM1 (from UniProt P14618-2 1-531) (enzyme)”, in experiment [1], the binding result is “no binding”.
